A number of entries come with more than one value. Only these are listed. There may be further records. Results that share an entry appear to be repeats on other runs, samples or individuals.
Tested on: bitter taste perception of 48 Caucasian subjects
Experiment: Human psychophysical bitter taste tests (4-AFC recognition thresholds, gLMS intensity ratings)
Format: in vivo
Details: 48 human subjects

## C=C1CC(O)C2C(=C)C(=O)OC2C2C(C)C(=O)CC12 (centres unmarked)
  bitter taste recognition threshold, mode of distribution: 9.9x10^-6 M and 2.2x10^-5 M

## CC1=C[C@@H]2[C@H]3[C@H](C(C)=C4[C@H]5OC(=O)[C@@H](C)[C@@H]5CC[C@](C)(O)[C@@H]43)[C@@]13[C@@H]2[C@@](C)(O)CC[C@H]1[C@H](C)C(=O)O[C@@H]13
  bitter taste recognition threshold, mode of distribution: 2.6x10^-7 M and 5.9x10^-7 M

— publication PMC4583475, “Receptor Polymorphism and Genomic Structure Interact to Shape Bitter Taste Perception” (PLoS Genetics, 2015)
